Source: US10533231B2, “Artificial bioluminescent enzyme” (NATIONAL INSTITUTE OF ADVANCED INDUSTRIAL SCIENCE AND …, priority 2012, dated 2020)
Some results were stated once for a whole list of compounds, not compound by compound.

Assay: Prolonged activity stability of ALucs secreted in medium (Example 1-19)
Format: physicochemical
Details: after 25 days
Experimental: The prolonged activity stability of the artificial luciferases (ALucs) developed in the present invention was examined. First, a plasmid expressing each artificial luciferase (ALuc16, ALuc22, ALuc23, ALuc24, ALuc25, and ALuc30) (in the figure, each is referred to as A16, A22, A23, A24, A25, and A30) was introduced into COS-7 cells, and then culturing was continued for 24 hours. By the culturing, each artificial luciferase was secreted into the medium. The artificial luciferase secreted in the medium was collected, and a difference in enzymatic activity was measured under the same conditions in the following manner. On the first day (Day 0), 50 μL of assay solution (containing native coelenterazine, produced by Promega) was added to 5 μL of each medium, and the luminescence value (enzymatic activity) was measured using an LAS-4000 (produced by FujiFilm). In the same manner, the luminescence value on Day 8, Day 16, and Day 25 was compared with the luminescence value on Day 0 (FIG. 19 (A)).

B1: ALuc25: artificial luciferase, SEQ ID NO: 17 (protein)
chain: MMGVKLIFAVLCVAVAQANATINENFEDIDLVAIGGSFADLETDLFTIVEDMNVISRDTDVDANRGGRGRRGKLPGKKLPLEVLKELEANAQKAGCTRGCLICLSHIKCTAKMKKWLPGRCESWEGDKETGQGGIGEAIVDIPEIPGFKELAPMEQFIAQVDLCADCTTGCLKGLANVKCSALLKKWLPSRCAGFADKIQAQVDTIKGAGGS
modifications: Synthetic ALuc25
- remaining enzymatic (luminescence) activity vs initial: 50-60%
